The assay can be described thus: qHTS Assay for Modulators of Lamin A Splicing. The settings on record: HeLa LMNA splicing GFP/RFP minigene ratio, 48 h. Summed up: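 S3 HeLa cells stably expressing lamin A-EGFP splicing minigene plus DsRed2, 600 cells/well, 48 h compound exposure at 37C. Laser-scanning cytometry; analysed as GFP (500-530 nm)/RFP (575-640 nm) total intensity ratio; 0.5% DMSO vehicle.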
A general note: Quantitative high-throughput screening tests each substance at several concentrations.

Setting [1] is: measured here: RFP viability control channel.
The mark [2] stands for this setting: measured here: GFP splicing reporter channel.

SMILES strings stand for the structures. “And” between values parts separate entries of the source, which are not always exact repeats. Equal entries are not always repeated. This is one part of the list. The main result of the screen is listed elsewhere. These columns were measured beside it and carry no call. Most of these compounds were active or inconclusive in the main read-out, so they are no random draw. Words in brackets tell the shape of the fitted curve; partial curves, single points and poor fits give uncertain potencies.

One may read the AC50 as the concentration giving half of the maximal activity seen. Take `CCCOc1cccc(C(=O)Nc2cccc(NC(=O)c3ccco3)c2)c1`: the AC50 under setting [1] was 12.6 µM [rising, single point].
As to `COc1ccc(OC)c(NC(=O)c2cnc(Nc3ccccc3OC)c3ccccc23)c1`, the AC50 was 17.8 µM [rising, single point] under setting [2] and 17.8 µM [rising, partial curve] under setting [1].
Consider `Cc1ccc(/C=C/C(=O)c2cc(Br)ccc2OC(=O)c2ccco2)cc1`, for which the AC50 under setting [1] was 3.55 µM [rising, single point].
Turning to `O=C(c1ccc(OCCN2CCCCC2)cc1)c1c(-c2ccc(O)cc2)sc2cc(O)ccc12`, the half-maximal activity concentration (AC50) reads like this: under setting [2], 7.94 µM [falling, partial curve, poor fit] and 12.6 µM [falling, partial curve]; under setting [1], 355 nM [falling, full curve, poor fit] and 12.6 µM [falling, partial curve, poor fit].
Regarding `COc1cccc(-c2nccc(-n3ccnc3)n2)c1`, the AC50 under setting [1] was 11.2 µM [rising, single point].
As for `O=C1c2ccccc2-c2n[nH]c3cccc1c23`, the concentration at half-maximal activity (AC50) under setting [2] was 0.00447 µM [falling, full curve, poor fit] and the AC50 under setting [1] is 0.00501 µM [falling, full curve, poor fit].
Regarding `Cc1nc(-c2ccccc2)sc1CCNS(=O)(=O)c1ccc(Br)cc1`, the AC50 reads like this: under setting [2], 35.5 µM [falling, single point]; under setting [1], 31.6 µM [falling, partial curve, poor fit].
As for `Cc1ccc(C(=O)Nc2ccccc2N2CCN(C(=O)C(C)C)CC2)cc1C`, the AC50 by setting is: under setting [2], 35.5 µM [rising, single point]; under setting [1], 31.6 µM [rising, single point].
Take `O=C(c1ccc(C#CC2(O)CCCCC2)cc1)N1CCN(Cc2ccccc2)CC1`: the AC50 under setting [1] is 17.8 µM [rising, single point].
On to `CCn1nc(C)c(CCN(C)C(=O)Nc2cc(Cl)ccc2C)c1C`, for which the concentration at half-maximal activity (AC50) reads like this: under setting [2], 0.447 µM [rising, partial curve, poor fit]; under setting [1], 0.0447 µM [rising, full curve].
With `CCc1ccccc1NC1=NCC(=O)N1C1CCCCC1`, the AC50 under setting [1] was 0.00447 µM [falling, full curve, poor fit].
In the case of `Nc1nn(S(=O)(=O)c2ccccc2)cc1-c1ccc([N+](=O)[O-])cc1`, the concentration at half-maximal activity (AC50) was 15.8 µM [rising, single point] under setting [2] and 17.8 µM [rising, single point] under setting [1].
Regarding `CN(C)c1nc2c(Br)c(Br)c(Br)c(Br)c2[nH]1`, the concentration at half-maximal activity (AC50) reads like this: under setting [2], 2.82 µM [falling, full curve]; under setting [1], 3.16 µM [falling, full curve].
`CCN(Cc1ccccc1)C(c1cc2cc(C)cc(C)c2[nH]c1=O)c1nnnn1CCOC` (stereo not drawn): under setting [2], the AC50 is 6.31 µM [rising, partial curve].
Consider `Cc1sc(=NC(=O)c2ccco2)n(C)c1-c1ccc(Cl)cc1`, for which the concentration at half-maximal activity (AC50) runs as follows: under setting [2], 12.6 µM [rising, partial curve, poor fit]; under setting [1], 28.2 µM [rising, partial curve, poor fit].
On to `O=C(c1cn(-c2ccccc2)nc1-c1cc2ccccc2oc1=O)N1CCOCC1`, for which the half-maximal activity concentration (AC50) under setting [1] is 2 µM [rising, single point].
For the compound `O=C(NC(Cc1c[nH]c2ccccc12)C(=O)N/N=C/c1cccc2ccccc12)c1cccs1` (stereo not drawn), the half-maximal activity concentration (AC50) under setting [1] was 1.12 µM [rising, full curve, poor fit].
With `CCCn1nc(Oc2nc(NCC)nc(NCC)n2)ccc1=O`, the AC50 under setting [2] is 10 µM [falling, partial curve, poor fit].
Turning to `COc1ccc(OC)c(CCNC(=O)Cn2ncc3c([nH]c4ccccc43)c2=O)c1`, under setting [2], the half-maximal activity concentration (AC50) was 0.0355 µM [rising, full curve, poor fit].
`Cc1cc(NC(=O)NC2(C(F)(F)F)Oc3ccc(Cl)cc3O2)no1` (stereo not drawn): the concentration at half-maximal activity (AC50) under setting [1] is 12.6 µM [rising, partial curve].
In the case of `NNc1ncnc2c1cnn2-c1ccccc1`, the AC50 under setting [1] was 35.5 µM [rising, single point].
Regarding `Cc1cccc(C)c1OCC(O)Cn1c2ccccc2c2ccccc21` (stereo not drawn), the AC50 was 35.5 µM [rising, single point] under setting [2] and 35.5 µM [rising, single point] under setting [1].
Turning to `O=C(N/C(=C/C=C\c1ccccc1)C(=O)N1CCOCC1)c1ccc(Br)cc1`, the AC50 was 11.2 µM [falling, partial curve] under setting [2] and 14.1 µM [falling, partial curve, poor fit] under setting [1].
As for `O=C(COc1ccc(Cl)cc1)NCc1nnc(SCC(=O)NC2CCCCC2)o1`, the AC50 under setting [1] was 12.6 µM [rising, single point].
In the case of `O=C(N/N=C/c1ccc(F)cc1)c1sccc1OCc1ccc(F)cc1`, under setting [2], the AC50 is 35.5 µM [rising, single point].
`CC(C)c1ccc(OCC(=O)Nc2cccc3c2CCCC3)cc1`: the concentration at half-maximal activity (AC50) was 20 µM [rising, single point] under setting [2] and 25.1 µM [rising, partial curve] under setting [1].
Regarding `CCCn1c(C)nc2c(c1=O)c1nc3ccccc3nc1n2CCC1=CCCCC1`, the half-maximal activity concentration (AC50) under setting [2] was 35.5 µM [falling, single point] and the AC50 under setting [1] was 35.5 µM [falling, single point].
On to `COc1cccc2c(SCC(=O)N/N=C/c3ccccc3)cc(C)nc12`, for which, under setting [1], the concentration at half-maximal activity (AC50) is 12.6 µM [rising, partial curve].
Consider `CCc1ccc(OCC(=O)NC(NC(=S)Nc2ccc(Cl)cc2)C(Cl)(Cl)Cl)cc1` (stereo not drawn), for which the AC50 under setting [1] is 12.6 µM [rising, partial curve, poor fit].
For `COc1ccc(-c2nc3cnc(OC)nc3n(-c3ccc(OC)cc3)c2=O)cc1`, the AC50 is 12.6 µM [falling, partial curve] under setting [2] and 20 µM [falling, single point] under setting [1].
In the case of `Cn1c(SCc2cccc(C(F)(F)F)c2)nnc1-c1ccco1`, the AC50 under setting [2] was 10 µM [rising, partial curve, poor fit].
With `COc1cc(C(c2sc3nc(C)nn3c2O)N2CCN(c3ccccc3)CC2)cc(OC)c1OC` (stereo not drawn), the AC50 under setting [1] was 5.01 µM [rising, full curve, poor fit].
Still for that read-out and setting: next, `Cc1ccccc1N=C/C=C1\N(C)c2ccccc2C1(C)C`: 12.6 µM [rising, single point]; `CC(=O)n1c(Cl)c(NC(=O)CCl)c2ccccc21`: 22.4 µM [falling, partial curve].

The values above are taken from PubChem BioAssay AID1487 (National Center for Advancing Translational Sciences (NCATS), 2009).
